# According to PubChem BioAssay AID2447 (National Center for Advancing Translational Sciences (NCATS), 2010):
# The shares of active, inactive and inconclusive entries below differ from those in the screen. Where the call is inconclusive, the potency comes from a doubtful curve fit. Activity calls are given as the source filed them. The call rests on the fitted dose curve.
# Experiment: Cell Viability Secondary Assay for Inhibitors of the Interaction of Thyroid Hormone Receptor and Steroid Receptor Coregulator 2
# Settings: HepG2 viability, ATP luminescence (CellTiter-Glo), 72 h
# Excerpt: NIH Molecular Libraries Probe Production Network [MLPCN] NIH Chemical Genomics Center [NCGC] MLPCN Grant: DK058080 Assay Provider: R. Kip Guy, St. Jude Children's Research Hospital NCGC Assay Overview: Thyroid receptor (TR) regulates many homeostatic processes including basal metabolism, cardiovascular function, body weight, and lipid trafficking. TR modulators are potential therapeutics for obesity and hyperlipidemias but current thyroid analogs have undesirable side effects, particularly cardiac stimulation. This secondary assay characterized compounds identified in the qHTS for Inhibitors of the Interaction of Thyroid Hormone Receptor and Steroid Receptor Coregulator 2 (PubChem AID 1485). The effect of compounds on the viability of HepG2 cells was assessed by measuring ATP levels.
# NCGC Assay Protocol Summary: HepG2 cells were grown to 80% confluence, collected, and cells were dispensed at 500 cells/25 ul/well into 384 well plates (Costar 3712). Following transfer of 100 nL compound (ranging from 2.5 nM to 50 uM), cells were incubated for 72 hours at 37 C and 5% CO2. Following this incubation, plates were equilibrated at ambient temperature for 30 min, 25 ul of CellTiter-Glo (Promega) was added and luminescence was detected by an EnVision (PerkinElmer) reader.
SMILES,outcome,Potency
CS(=O)(=O)c1ccc(C(=O)OCC(=O)Nc2ccc(OC(F)(F)F)cc2)cc1[N+](=O)[O-],inactive,
CC(=O)c1cccc(NC(=O)C(C)OC(=O)c2ccc(S(C)(=O)=O)c([N+](=O)[O-])c2)c1 (centres undefined),,inconclusive: 30 µM
O=C(COC(=O)c1cccc([N+](=O)[O-])c1Cl)NC1C2CC3CC(C2)CC1C3 (centres undefined),inactive,
CS(=O)(=O)c1ccc(C(=O)OCC(=O)NCC2CCCO2)cc1[N+](=O)[O-] (centres undefined),,inconclusive: 43.7 µM
Cc1ccccc1NC(=O)COC(=O)c1ccc(S(C)(=O)=O)c([N+](=O)[O-])c1,,inconclusive: 26.4 µM
CCN(CC)C(=O)COC(=O)c1ccc(S(C)(=O)=O)c([N+](=O)[O-])c1,,inconclusive: 27.5 µM
CS(=O)(=O)c1ccc(C(=O)OC(C(=O)NC2C3CC4CC(C3)CC2C4)c2ccccc2)cc1[N+](=O)[O-] (centres undefined),,active: 10 µM
O=C(COC(=O)c1cc([N+](=O)[O-])ccc1Cl)NC1C2CC3CC(C2)CC1C3 (centres undefined),inactive,
CC(=O)c1cccc(NC(=O)COC(=O)c2ccc(S(C)(=O)=O)c([N+](=O)[O-])c2)c1,,inconclusive: 37 µM
Cn1cccc1C(=O)NC(=O)COC(=O)c1ccc(S(C)(=O)=O)c([N+](=O)[O-])c1,,inconclusive: 31.4 µM
CS(=O)(=O)c1ccc(C(=O)OCC(=O)Nc2cc(C(F)(F)F)ccc2Cl)cc1[N+](=O)[O-],,active: 16.8 µM
Cc1cc(C(=O)OCC(=O)NC(=O)C2CCCCC2)ccc1[N+](=O)[O-],,inconclusive: 25.6 µM
O=C(COC(=O)c1cccc([N+](=O)[O-])c1)NC1C2CC3CC(C2)CC1C3 (centres undefined),inactive,
O=C(COC(=O)c1ccc(F)c([N+](=O)[O-])c1)NC1C2CC3CC(C2)CC1C3 (centres undefined),,inconclusive: 34.5 µM

# Some values from above:
# CS(=O)(=O)c1ccc(C(=O)OCC(=O)Nc2ccc(OC(F)(F)F)cc2)cc1[N+](=O)[O-] | outcome: inactive
# Cc1ccccc1NC(=O)COC(=O)c1ccc(S(C)(=O)=O)c([N+](=O)[O-])c1 | Potency: inconclusive: 26.4 µM
